Some of the results follow.
B1: il2ra_site1_1z92_sap_11_mot_dddd11d5de81826a7497a0a2545a4374_0001_1_af2_000000029_0001_35_49_H_._f9a7eb7446a159d83fbdd9ee03297373_0001_0001_0000200028_0000001_0 … (protein)
chain: SNELEEEIKEAIEKNDEELLKEILELLERIAGDPRLARQFLAQLIRRLLGDPEKAKEIVERIARR
B2: il2ra_site1_2b5i_normal_mot_22370d59370c406a0c205a431f537cfa_0001_af2_000000027_0001_1_31_H_._HHH_b2_07174_0001_0000500033_0000001_0_af2pred_0001_af2pred_1 (protein)
chain: SSSSSEAERLAEIVFELAEEFGLDTEQFNELARLASRLAFRGVSEEEIEKLLEELAERLSSSSSS
B3: il2ra_site2_2erj_sap_26_mot_HHH_b1_08228_af2_000000209_0001_42_55_H_._HHH_b2_05976_0001_0000200006_0000001_0_0001 (protein)
chain: DKAEEIVEEILRLVEEDSEEAREEVRRILEEVAKDAELSRRVLELAREDPRLQLAFYRAMRIAFS
B4: il2ra_site2_3nfp_normal_mot_HHH_b1_00660_af2_000000090_0001_40_57_H_._HHH_b1_06964_0001_0000100002_0000001_0_af2pred_0001_1_af2pred_swapped (protein)
chain: SSSSSEEEKQVEELLRRAEELLERGDPEEAREVVEEAALIAAELNNHELFALIIELLEKIDSSSS
B5: il2ra_site2_2erj_sap_21_mot_HHH_b1_05735_000000112_0001_20_37_H_._520760a1b3033c0d7e8c6ec61dbb0d93_0001_1_0001_0000200013_0000001_0_0001 (protein)
chain: SSSSSSDLEELAVEAVELANEGNPEEARKVVEEAIELAEEEGDEYALRYLELALEDIRSSSSSSS
B6: il2ra_site1_2b5i_normal_mot_f5ff40796168375b462bec8614a1db4a_0001_1_000000138_0001_53_65_H_._HHH_b2_06782_0001_0000300019_0000001_1_af2pred_0001_af2pred_1 (protein)
chain: SSSDFKEESAKELLKHAEELYKKGNPERARAVFFLALAAARRGGDEELLEEIRELLERLEKSSSS
B7: il2ra_site1_2b5i_normal_mot_HHH_b2_04910_000000118_0001_1_19_H_._HHH_b2_06462_af2_0001_0000100001_0000001_0_af2pred_0001_af2pred (protein)
chain: SSSSDKREALELLEEANKLAQNGNPEEAEKVAEEALRLAEEGGNKALAKSIRVAVRQLRLSSSSS
B8: il2ra_site1_2b5i_normal_mot_HHH_b2_04910_000000118_0001_1_19_H_._HHH_b1_03416_0001_0000100004_0000001_0_af2pred_dldesign_0_af2pred (protein)
chain: SSSDAALAREARELFLKANELKQAGKEEEALKLLEKARELAEAGGAPLLARMIDIAIENVKSSSS
B9: il2ra_site1_2b5i_sap_10_mot_HHH_b2_04633_000000016_0001_38_52_H_._HHH_b2_03268_af2_0001_0000100013_0000001_0_0001_af2pred_0001_af2pred_1 (protein)
chain: SSSSSSAERIARWAFELAEELVEEGDDEQVKLILEQMEELAELLGDPRIRELVEELQRRLSSSSS
B10: il2ra_site1_3nfp_normal_mot_86920ccf215a9397388743310839e631_0001_1_000000296_0001_18_34_H_._b29dd7dff93b1ac3f1fd774082f773f6_0001_0002_0000300020_0000001_0 (protein)
chain: SLEEELKRLVEEGDPEELKRILEELIREAEEKHDPRLAHEVLRLIAKLDRLGDPAAKLAYEIIAK
B11: il2ra_site2_3nfp_normal_mot_HHH_b2_08209_000000146_0001_1_18_H_._HHH_b1_00902_af2_0001_0000400038_0000001_0 (protein)
chain: SSSSSDEEEVERRVKELLEEAERVSEEEAREILKEATNLAYELRDFELFALIADLRSELASSSSS
B12: il2ra_site2_3nfp_sap_19_mot_HHH_b2_05281_000000198_0001_39_56_H_._b8f5d3c2707715a5215f600c9304175e_0001_1_0001_0000200006_0000001_0_0001 (protein)
chain: SSSSDEEVREEVEELLEQAKRIEDEEEVRELLARAVRIAWENNDEELFFEIAEVAFELMQSSSSS
B13: il2ra_site1_3nfp_sap_14_mot_HHH_b1_02075_af2_000000035_0001_1_18_H_._812af5c65f29141b25d3ed263bec1fb2_0001_1_af2_0001_0000200009_0000001_0_0001 (protein)
chain: SSSSDLEEEVEELQRELERAIEEGDFKLAEEIFRRLMELARENNDIEIAEEAYRLVHEHVKSSSS
B14: il2ra_site1_1z92_normal_mot_HHH_b1_03515_000000289_0001_1_19_H_._HHH_b2_07175_0001_0000100001_0000001_0 (protein)
chain: SSSSDRLERAAEIIVRVAVEANGLSEEQEKELEELARELVERGLDPLEIIKLLDRLAAELSSSSS
B15: il2ra_site1_3nfp_normal_mot_HHH_b1_04049_af2_000000244_0001_42_55_H_._HHH_b1_01786_0001_0000400012_0000001_0_af2pred_0001_af2pred (protein)
chain: SSSSDDKKRIQKLLREIMRLSKEGDEEEAEKLLEEVEELAREAGDPVAELLVELLKKILNSSSSS
B16: il2ra_site1_3nfp_sap_8_mot_ems_3hC_617_000000125_0001_25_41_H_._HHH_b1_04051_af2_0001_0000100005_0000001_0_0001_af2pred_0001_af2pred_1_swapped (protein)
chain: SSSSNEVSRRIDELLRRAAELAKQGDPEEAEKLLEEAQELAEEAGSPIAEKLVELVAKHLSSSSS
B17: il2ra_site2_3nfp_sap_15_mot_HHH_b1_03544_000000039_0001_44_57_H_._HHH_b2_05387_0001_0000300014_0000001_0_0001 (protein)
chain: SVEEVLRALKRSGDPRLEKLAEEVEELLRRGIPPEEIREELAREAAEERDHLVFIVASLLASLIA
B18: il2ra_site1_1z92_sap_17_mot_HHH_b1_06709_000000271_0001_41_56_H_._HHH_b2_07927_af2_0001_0000100002_0000001_0_0001_af2pred_0001_af2pred_1 (protein)
chain: SWKEFLAEQLRRKPPESVEKLLRKSKEAAKRAGTPPEEIREILEELAELAGDPEVEKIVEELIKP

target: il2ra, P01589; assay: yeast display titration

Binder	apparent Kd
B1	inactive: no binding seen
B2	inactive: no binding seen
B3	inactive: no binding seen
B4	inactive: no binding seen
B5	inactive: no binding seen
B6	inactive: no binding seen
B7	inactive: no binding seen
B8	inactive: no binding seen
B9	inactive: no binding seen
B10	inactive: no binding seen
B11	inactive: no binding seen
B12	inactive: no binding seen
B13	inactive: no binding seen
B14	inactive: no binding seen
B15	inactive: no binding seen
B16	inactive: no binding seen
B17	inactive: > 1500 nM
B18	inactive: no binding seen

Random excerpt: 2 entries already listed, in no set order.
Binder	apparent Kd
B18	inactive: no binding seen
B17	inactive: > 1500 nM
